PubChem BioAssay AID1053208 | Peter MacCallum Cancer Centre, 2014

Test: 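Find knock-downs that sensitise mouse osteosarcoma cells to doxorubicin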 (primary screen)
Cell system: mouse osteosarcoma cells, early-passage culture from an engineered mouse model of fibroblastic bone tumour
Reagents: siRNA pool against mouse genes, 40 nM
Duration: about 120 h (48 h before drug, then 72 h with drug)
Conditions: doxorubicin 100 nM for 72 h, roughly 30-40% inhibitory dose
Read-out: 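Luminescent ATP signal taken as viability with or without 100 nM doxorubicin for 72 h; mean of two wells set against non-targeting siRNA and turned into robust z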
Reading the numbers: viability z-score with doxorubicin: higher = more viable cells under doxorubicin; viability z-score without drug: higher = more viable cells with knock-down alone
Rule for the call: 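a pool counts as active when its viability z-score with doxorubicin is -2 or below and its z-score without drug lies between -2 and 2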
The deposit covers about 17,000 reagents; this is an unselected part. Of all reagents, 788 (4.7%) got an active call. 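Calls rest on z-score classes alone; an extra cut-off of viability at most 70% of control was not applied to them.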 Unmarked entries are inactive. Further read-outs or replicates are left out here. No sequences are given here.

| Target gene | combined z-score class | viability z-score with doxorubicin | viability z-score without drug |
| --- | --- | --- | --- |
| Cypt3 | low cell count without drug only | -0.9 | -2.19 |
| Ndufs2 | low cell count without drug only | 0.79 | -2.19 |
| Cd209e | no change with or without drug | 0 | 1.85 |
| Slc25a45 | no change with or without drug | 0 | 0.34 |
| Oas1e | no change with or without drug | 1.24 | -0.17 |
| Tspear | no change with or without drug | -1.35 | -0.17 |
| Pcare | no change with or without drug | 0.22 | -0.17 |

In a second layout: entries from further up.
Slc25a45: combined z-score class = no change with or without drug; viability z-score with doxorubicin = 0; viability z-score without drug = 0.34
Oas1e: combined z-score class = no change with or without drug; viability z-score with doxorubicin = 1.24; viability z-score without drug = -0.17
Tspear: combined z-score class = no change with or without drug; viability z-score with doxorubicin = -1.35; viability z-score without drug = -0.17

Further results:
| Target gene | combined z-score class | viability z-score with doxorubicin | viability z-score without drug |
| --- | --- | --- | --- |
| Gtpbp2 | no change with or without drug | -0.22 | 0.17 |
| Ddx56 | no change with or without drug | -0.9 | -0.51 |
| Or8d1b | no change with or without drug | -1.46 | -0.67 |
| Ggt7 | no change with or without drug | 1.57 | 1.18 |
| Svs3b | high cell count without drug only | 1.01 | 2.02 |
| Crip1 | no change with or without drug | 0.22 | 0 |
| Kif16b | no change with or without drug | 0.34 | -0.84 |
| Ccdc54 | no change with or without drug | -0.11 | 1.18 |
| Pde7a | no change with or without drug | 0 | -0.17 |
| Txnrd1 | no change with or without drug | -0.22 | 0 |
| Ccp110 | low cell count without drug only | -0.67 | -5.9 |
| Egf | no change with or without drug | 0.67 | 1.18 |
| Zeb1 | no change with or without drug | -0.34 | 0.84 |
